These are yes or no findings as the source states them, for the method shown. In cells and extracts the contact can be indirect. Some binding calls cover weakened binding; strength is not graded here.

Chains of the proteins cited; added tags and fusions are not shown. Residues count along the entry.
UniProt O15460, residues 22-535: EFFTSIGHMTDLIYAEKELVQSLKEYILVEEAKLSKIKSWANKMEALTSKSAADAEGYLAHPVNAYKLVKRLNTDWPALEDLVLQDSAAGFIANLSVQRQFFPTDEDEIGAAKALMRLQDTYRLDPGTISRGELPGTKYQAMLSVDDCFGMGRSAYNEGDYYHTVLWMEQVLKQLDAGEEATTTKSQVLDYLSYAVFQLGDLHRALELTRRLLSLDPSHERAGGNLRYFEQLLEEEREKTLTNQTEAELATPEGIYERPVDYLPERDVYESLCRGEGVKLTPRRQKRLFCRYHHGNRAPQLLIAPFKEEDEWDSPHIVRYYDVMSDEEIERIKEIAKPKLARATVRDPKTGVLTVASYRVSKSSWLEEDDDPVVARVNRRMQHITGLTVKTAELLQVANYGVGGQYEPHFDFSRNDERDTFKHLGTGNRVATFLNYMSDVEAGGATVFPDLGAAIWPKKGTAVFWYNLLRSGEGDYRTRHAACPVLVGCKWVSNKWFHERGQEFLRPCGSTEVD
UniProt P42224: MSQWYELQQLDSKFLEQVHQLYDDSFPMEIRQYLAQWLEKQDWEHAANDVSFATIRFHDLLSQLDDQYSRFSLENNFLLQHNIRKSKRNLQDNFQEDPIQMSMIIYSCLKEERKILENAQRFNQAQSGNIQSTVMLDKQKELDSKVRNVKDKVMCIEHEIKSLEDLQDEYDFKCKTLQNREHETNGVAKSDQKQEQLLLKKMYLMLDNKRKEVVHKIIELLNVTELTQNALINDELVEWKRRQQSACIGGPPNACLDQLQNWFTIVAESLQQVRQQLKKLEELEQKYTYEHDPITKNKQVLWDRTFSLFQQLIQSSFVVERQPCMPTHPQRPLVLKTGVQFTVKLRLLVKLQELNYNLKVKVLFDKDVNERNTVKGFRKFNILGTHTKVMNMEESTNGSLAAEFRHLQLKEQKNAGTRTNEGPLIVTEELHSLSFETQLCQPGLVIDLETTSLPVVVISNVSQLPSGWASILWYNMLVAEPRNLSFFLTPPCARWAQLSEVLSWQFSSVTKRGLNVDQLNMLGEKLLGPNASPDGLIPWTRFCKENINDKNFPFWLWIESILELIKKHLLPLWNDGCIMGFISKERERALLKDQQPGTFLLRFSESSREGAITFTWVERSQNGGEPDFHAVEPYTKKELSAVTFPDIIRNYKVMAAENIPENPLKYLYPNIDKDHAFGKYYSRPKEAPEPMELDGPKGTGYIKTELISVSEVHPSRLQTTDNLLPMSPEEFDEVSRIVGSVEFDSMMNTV

This experiment has as its target prolyl 4-hydroxylase subunit alpha 2 (P4HA2) (human (endogenous in HCT8)) (UniProt O15460). The experiment can be described thus: co-IP; HCT8 cell lysate; Crosslink Magnetic IP/Co-IP Kit; IP with 5 ug P4HA2 polyclonal antibody (ab70887) on magnetic beads, overnight at 4°C; rabbit IgG as negative control; Western blot for P4HA2 and STAT1. In general terms: In western blotting, separated proteins are transferred to a membrane and probed.

On to STAT1 (from UniProt P42224 1-750), for which the binding result was “binds”.

The record behind these values is publication PMC12094996.
